Assay results published in the supplement of paper PMC3334620.
In all, about 33,000 sequences were measured (“E-score (-0.5 to 0.5)”: median about -0.0059, highest 2% from about 0.26 on). This is one part of the list.

Molecular target: T1, Cin5 (UniProt P40917)
T1 sequence: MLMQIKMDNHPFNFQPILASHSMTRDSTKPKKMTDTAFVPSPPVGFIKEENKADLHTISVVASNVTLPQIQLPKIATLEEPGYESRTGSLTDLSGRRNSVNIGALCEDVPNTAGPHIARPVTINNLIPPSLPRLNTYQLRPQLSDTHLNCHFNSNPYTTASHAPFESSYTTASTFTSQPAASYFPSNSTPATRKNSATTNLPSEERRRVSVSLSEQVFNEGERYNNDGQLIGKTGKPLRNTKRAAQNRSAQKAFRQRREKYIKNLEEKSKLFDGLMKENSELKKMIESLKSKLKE
Assay: PBM E-score (8-mer binding enrichment) (E-score (-0.5 to 0.5)); higher = stronger / more preferred TF binding
Conditions: protein concentration: 100 nM; construct: GST-full length
Summary of the method: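 Universal all-10-mer Agilent arrays, double-stranded by primer extension on fresh or once-stripped slides, were probed with about 100-200 nM GST-tagged yeast transcription factors made by PURExpress. Fluorescent anti-GST detected bound protein, and masliner normalised the scans. E-scores from the Universal PBM Analysis Suite were given to each ungapped eight-base word pooled with its reverse complement.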

Row | Sequence | PBM E-score
1 | GGCGGAAA | 0.088
2 | AGGACATA | 0.0165
3 | GTATCCTA | -0.134
4 | GACATAAA | 0.239
5 | GTCCTGTA | -0.101
6 | CACAGACG | -0.00259
7 | TACATGAA | 0.0703
8 | CACCTCGG | -0.0365
9 | ACTGGACT | -0.093
10 | GGAACTCC | 0.0855
11 | AGTAGCTC | -0.109
12 | ATATGCCG | 0.141
13 | GTAAATAA | 0.189
14 | TAGTTTCA | 0.231
15 | GACAGTCA | -0.165
16 | GCCCGTCC | -0.242
17 | ACTTCTAA | -0.123
18 | ACGGTACG | -0.0614
19 | TACTTGCA | 0.141
20 | AGGTTCTG | -0.145
21 | CCTACATA | -0.0197
22 | GGGTCTGA | -0.0937
23 | AGTCGAAA | 0.0984
24 | GTGGCATA | 0.0881
25 | TGCCAGAA | -0.0023

2 entries from above, with tabs:
Row	Sequence	PBM E-score
1	GGCGGAAA	0.088
7	TACATGAA	0.0703

A second format for some results above:
Row,Sequence,PBM E-score
6,CACAGACG,-0.00259
9,ACTGGACT,-0.093
17,ACTTCTAA,-0.123
18,ACGGTACG,-0.0614
21,CCTACATA,-0.0197
22,GGGTCTGA,-0.0937
25,TGCCAGAA,-0.0023

(further entries)

Row | Sequence | PBM E-score
26 | GAGAAGAA | 0.0328
27 | AGCGATTG | -0.0501
28 | ACTGAGAG | -0.196
29 | GTACCCGA | -0.233
30 | ACACTGCT | -0.102
31 | CTCTCCGA | -0.256
32 | GATACACA | 0.0946
33 | CATTTTGG | 0.0271
34 | CTAAATCA | 0.00062
35 | AGAAATAG | 0.109
36 | GTATTCAA | 0.16
37 | ACGGAGCG | 0.0709
38 | AACAGAAT | -0.00288
39 | ACTTTAAT | 0.158
40 | ATGCAGTA | 0.166
41 | GAAAGAGA | 0.0604
42 | CTTCTAGA | -0.146
43 | ACCGTCCC | -0.149
44 | ATCCGCTG | 0.0586
45 | AACTTCCG | 0.0891
46 | AAGATAGC | -0.0127
47 | AAGCTTTG | 0.0433
48 | ATGTGAGC | -0.0106
49 | TCAGGTCA | 0.0576
50 | ACTCGTGA | -0.124

Row | Sequence | PBM E-score
51 | AACGTTCG | -0.0146
52 | CGTCCCGC | -0.00601
53 | CACCTGCG | -0.0584
54 | ATATTGGC | 0.0862
55 | AAGTGCGT | -0.0503
56 | CTCGGCAG | -0.0503
57 | CCGGGTGA | 0.00652
58 | AAGCACCT | 0.0923
59 | GCATAAAA | 0.0577
60 | TCCAATAA | 0.132
61 | AACGTACT | 0.105
62 | ATAGCCTG | -0.218
63 | AAGCCCAG | -0.048
64 | AAGGCAAT | 0.0678
65 | GGTGTTGA | -0.0286
66 | CGCCCCGC | -0.023
67 | ACATAGAC | 0.0249
68 | ACACATCC | 0.0576
69 | GACTGCAA | -0.0854
70 | AAAGGATT | -0.00637
71 | CAACCACA | 0.1
72 | CTGACAAA | 0.186
73 | AAAGTGCT | -0.0393
74 | AAAAGGCA | 0.0609
75 | AGCACCGA | 0.0341

Row | Sequence | PBM E-score
76 | ATACTGGA | 0.153
77 | GCACTCAA | -0.167
78 | ACCCCGGA | -0.00022
79 | TGTACACA | 0.0885
80 | ATTAAGAC | -0.0447
81 | CCTGATTC | 0.0656
82 | CGCATAAA | 0.113
83 | ATATCACG | 0.173
84 | GGTTGAAC | 0.0825
85 | ACCTGGGC | -0.282
86 | AAGAATCA | 0.253
87 | CATTAACG | 0.0883
88 | GCGTGTCC | 0.005
89 | ACACATGT | 0.0736
90 | ATCCGCTA | 0.13
91 | CATTCAGA | -0.052
92 | GCACGTGA | -0.0905
93 | AACTTAAC | 0.231
94 | ACTACTTG | 0.168
95 | ATTTCTAC | -0.0323
96 | ATACCGTG | 0.00629
97 | GAAGCACA | 0.101
98 | CAATCCCG | 0.259
99 | CCCCGGGG | -0.33
100 | ATGGACAA | 0.141

Two entries picked at random from those above:
Row | Sequence | PBM E-score
94 | ACTACTTG | 0.168
95 | ATTTCTAC | -0.0323

Later entries:

Row | Sequence | PBM E-score
101 | AGGGTATG | 0.0272
102 | AGGCAGGC | -0.168
103 | CCAATTCC | 0.13
104 | ATTATCGC | 0.245
105 | CGGAAAAA | 0.128
106 | AACTGTGG | 0.158
107 | GAGAGGAA | 0.0247
108 | CGCGTCAG | -0.0883
109 | ATACTCAT | 0.0642
110 | ACCAGAAC | 0.147
111 | AGAAAGGA | -0.116
112 | ATTTAACA | 0.209
113 | AATCAAAT | 0.176
114 | AAGACGAC | 0.14
115 | AGCCAACC | 0.18
116 | TGAGATCA | -0.0191
117 | CTTCTTCC | -0.107
118 | ACCGGGGA | -0.226
119 | ACACTGCA | -0.118
120 | ACGTTTGG | -0.202
121 | AAGGCATC | -0.242
122 | CTAAAGCA | 0.0792
123 | ATCAGGTG | 5e-05
124 | ATGTATCG | 0.232
125 | GTGTAAAC | -0.0602

Row | Sequence | PBM E-score
126 | CTAGAGTC | -0.356
127 | AGAGACTC | -0.0094
128 | CGAGTGCG | 0.0908
129 | AACGCATA | 0.0552
130 | CTGTGTTC | 0.129
131 | CGCAATAG | 0.0664
132 | CGATGGCA | -0.0471
133 | ACCGACGG | -0.0139
134 | CAATACCC | 0.148
135 | TCCGAAGA | 0.00859
136 | AACAGTGA | -0.0463
137 | GTACAGTA | 0.0783
138 | CCCCCGCA | -0.351
139 | AGTCACAG | -0.0359
140 | TTACGCAA | 0.306
141 | CAGAAAGG | -0.0597
142 | GTGATAAA | -0.0525
143 | GCGTCCAA | -0.177
144 | TAGCACAA | -0.0429
145 | TGGCGAAA | -0.0645
146 | CTTCAATA | 0.0873
147 | CAGGGAAG | -0.121
148 | CGGAGAAC | -0.0623
149 | TACGCTCA | 0.107
150 | GAATTTGA | 0.0437

Row | Sequence | PBM E-score
151 | GAGAATCC | 0.0215
152 | TAAGACTA | 0.117
153 | CTTAATAC | 0.191
154 | ACCTCTCC | -0.244
155 | CGTCTCAG | -0.138
156 | AAAGATCG | 0.0677
157 | AACTCGAG | 0.173
158 | GAAGGGAA | -0.167
159 | CGAGCGTA | -0.0619
160 | CATAGCTC | -0.197
161 | ACAGTGGA | 0.0429
162 | CAGATTAC | 0.246
163 | ACGATGTA | 0.107
164 | CAGGGTCC | -0.275
165 | CGATGATA | -0.0237
166 | CCCAATAC | -0.00655
167 | ACCATAAA | 0.0774
168 | GGAGTGTA | -0.177
169 | ATTTACCC | 0.104
170 | GAGTGTCA | 0.114
171 | AGAGTGCA | -0.0185
172 | TAGACGAA | -0.0114
